Source: article PMC12703665 (Journal of the American Chemical Society, 2025)

Assay: peptide synthesis
Conditions: conjugation step

Substance: pepa-pic2-C-Hex-KuE
- conjugation yield: 39%
